Experimental data from publication PMC12022009.
No constants are given. Whether binding was seen depends on the method and setting. In cells and extracts the contact can be indirect. A yes stands for co-enrichment or nearness to the bait. Other partners may have been found.

Chains of the proteins cited; added tags and fusions are not shown.
UniProt Q15365: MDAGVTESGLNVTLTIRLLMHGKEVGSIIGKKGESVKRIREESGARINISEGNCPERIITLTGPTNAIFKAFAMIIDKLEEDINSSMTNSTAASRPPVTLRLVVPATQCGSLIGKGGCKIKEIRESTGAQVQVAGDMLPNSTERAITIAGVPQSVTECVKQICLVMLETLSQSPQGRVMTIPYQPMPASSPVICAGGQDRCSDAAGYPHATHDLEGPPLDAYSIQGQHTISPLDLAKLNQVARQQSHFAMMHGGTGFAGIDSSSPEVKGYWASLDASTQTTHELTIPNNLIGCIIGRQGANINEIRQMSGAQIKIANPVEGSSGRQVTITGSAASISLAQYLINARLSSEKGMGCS

Biological target: T1, BCAT2 (human (endogenous in PCa cells)) (UniProt O15382)
T1 sequence: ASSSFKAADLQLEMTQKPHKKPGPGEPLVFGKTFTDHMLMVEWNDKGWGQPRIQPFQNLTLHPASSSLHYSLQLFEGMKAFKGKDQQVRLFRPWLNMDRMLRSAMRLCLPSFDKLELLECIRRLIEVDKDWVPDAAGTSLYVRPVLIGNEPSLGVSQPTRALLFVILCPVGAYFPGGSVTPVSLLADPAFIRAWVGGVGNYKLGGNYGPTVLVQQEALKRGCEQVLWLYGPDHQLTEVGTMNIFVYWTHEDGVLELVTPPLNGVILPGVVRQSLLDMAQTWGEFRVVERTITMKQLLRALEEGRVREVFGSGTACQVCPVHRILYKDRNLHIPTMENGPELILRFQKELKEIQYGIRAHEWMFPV
Experiment: affinity purification with mass spectrometry; Co-IP of BCAT2 from cell lysate against an IgG control; BCAT2-specific Coomassie-stained gel bands identified on a Q Exactive HF-X

binding: binds
Substance: PCBP1 (from UniProt Q15365 1-356)
